Measurements taken from PubChem BioAssay AID652054 (National Center for Advancing Translational Sciences (NCATS), 2013).
Among all 360,000 compounds or so, about 9,100 (2.5%) were called active. This list was built around the results that the source calls inconclusive (neither active nor inactive); the mix of calls is not that of the screen. Rule as the data show it: active = max response below about -50%; inconclusive = no clear call, values can overlap the other calls; inactive = above that.

The chains behind the UniProt entries cited, without tags or fusion partners.
UniProt P35462, whole entry, looked up: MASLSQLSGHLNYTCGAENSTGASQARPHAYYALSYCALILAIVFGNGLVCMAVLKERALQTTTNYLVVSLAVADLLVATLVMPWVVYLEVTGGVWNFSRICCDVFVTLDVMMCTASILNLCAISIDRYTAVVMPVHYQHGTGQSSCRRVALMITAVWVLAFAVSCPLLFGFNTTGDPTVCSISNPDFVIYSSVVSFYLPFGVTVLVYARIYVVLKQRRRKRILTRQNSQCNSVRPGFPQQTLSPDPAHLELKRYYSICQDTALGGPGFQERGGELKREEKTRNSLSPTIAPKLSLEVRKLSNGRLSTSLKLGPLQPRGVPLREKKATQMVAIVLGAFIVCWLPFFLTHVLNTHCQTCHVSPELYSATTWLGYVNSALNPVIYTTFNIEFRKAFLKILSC

What follows are compounds tested against D(3) dopamine receptor (Homo sapiens) (UniProt P35462) (assay: qHTS of D3 Dopamine Receptor Antagonist: qHTS). Conditions: D3R cells, DiscoveRx beta-arrestin luminescence, antagonist mode; stronger effect = lower value.
Procedure, shortened: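 Cells plated overnight at 1500 cells/well, then exposed to library compounds with dopamine controls for 90 minutes at 37 degrees C. DiscoveRx reagent added for 30–60 minutes at room temperature; luminescence read, quantitative HTS format.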
% is scaled to controls: 0 for no effect and ±100 for the full control effect.

Q: How did the max response, negative = inhibition turn out when CCOc1cc(N2CCOCC2)c(OCC)cc1NC(=O)c1cc(-c2ccco2)nc2ccccc12 was run?
A: Its max response, negative = inhibition is inactive: 10.6%.

Q: For CCc1cc(C(=O)N2CCOCC2)c(NC2=NS(=O)(=O)c3ccccc32)s1, which max response, negative = inhibition is on record?
A: The max response, negative = inhibition was active: -68.9%.

Q: COC(=O)c1ccc(NCC(=O)c2ccccc2)cc1 was tested. Which max response, negative = inhibition did it give?
A: Its max response, negative = inhibition is inconclusive: -34.8%.

Q: How did the max response, negative = inhibition turn out when COC(=O)[C@H](CC(C)C)NC(=O)Cn1cnc2c(NCc3ccccc3)ncnc21 was run?
A: Its max response, negative = inhibition is inconclusive: -38.7%.

Q: Cc1c(-c2ccccc2)nc(-c2ccccc2)[nH]c1=O was tested. Which max response, negative = inhibition did it give?
A: The max response, negative = inhibition was inconclusive: -43%.

Q: For O=C(NCCCN=C1NS(=O)(=O)c2ccccc21)c1ccco1, which max response, negative = inhibition is on record?
A: The max response, negative = inhibition was inconclusive: -38.7%.

Q: For O=C(CCN1CCCCC1)Nc1cccc(Br)c1, which max response, negative = inhibition is on record?
A: The max response, negative = inhibition was inconclusive: -47.3%.

Q: Which max response, negative = inhibition does the source give for Cc1ccc(OCCN2C(=O)C(=O)c3cccc(C)c32)cc1 here?
A: The max response, negative = inhibition was inconclusive: -40.4%.

Q: Which max response, negative = inhibition does the source give for N#Cc1ccccc1S(=O)(=O)N1CCN(C(=O)Cc2coc3cc(O)ccc23)CC1 here?
A: Its max response, negative = inhibition is inconclusive: -39%.

Q: How did the max response, negative = inhibition turn out when CC1c2ccccc2SC(CCCN(C)C)c2ccccc21 (stereo unspecified) was run?
A: Its max response, negative = inhibition is inconclusive: -36.7%.

Q: How did the max response, negative = inhibition turn out when COc1ccc(CNc2cc([N+](=O)[O-])ccc2OC)cc1 was run?
A: Its max response, negative = inhibition is inconclusive: -34.9%.

Q: With CCCCOc1ccc(Nc2cc(Cl)ccc2C(=O)O)cn1 as the compound, how does the max response, negative = inhibition read?
A: Its max response, negative = inhibition is inconclusive: -43.6%.

Q: O=C(NCCCNCc1ccccc1)/C(=N\O)c1ccccc1 was tested. Which max response, negative = inhibition did it give?
A: The max response, negative = inhibition was inactive: -19.2%.

Q: With Cc1noc(C)c1CS(=O)(=O)c1ccc(Br)cc1 as the compound, how does the max response, negative = inhibition read?
A: The max response, negative = inhibition was inconclusive: -30%.

Q: With Cc1oc(-c2ccc(Cl)cc2)nc1CS(=O)CC(=O)NCCN1CCCCCC1 (stereo unspecified) as the compound, how does the max response, negative = inhibition read?
A: Its max response, negative = inhibition is inconclusive: -31.4%.

Q: With CC1(C)Cc2c(sc(NC(=O)C(=O)N3CCCC3)c2C#N)CO1 as the compound, how does the max response, negative = inhibition read?
A: Its max response, negative = inhibition is inactive: 63.7%.

Q: With CCOc1ccccc1CN1CCN(Cc2cc(=O)c3ccccc3[nH]2)CC1CCO (stereo unspecified) as the compound, how does the max response, negative = inhibition read?
A: Its max response, negative = inhibition is inconclusive: -32.6%.

Q: With CC(C)NCCCOc1ccc(C(C)(C)c2ccccc2)cc1 as the compound, how does the max response, negative = inhibition read?
A: Its max response, negative = inhibition is inconclusive: -45.6%.

Q: Which max response, negative = inhibition does the source give for Cc1ccc(C(=O)CC(Nc2ccc(F)cc2)c2ccccc2)cc1 (stereo unspecified) here?
A: The max response, negative = inhibition was inconclusive: -43.4%.

Q: How did the max response, negative = inhibition turn out when O=C(CNC(=O)c1ccccc1)N=Nc1c(O)[nH]c2ccc(Br)cc12 was run?
A: Its max response, negative = inhibition is inconclusive: -34.4%.

Q: Cc1ccc(SCC(=O)N2N=CCC2c2ccccc2)cc1 (stereo unspecified) was tested. Which max response, negative = inhibition did it give?
A: The max response, negative = inhibition was inactive: 3.56%.

Q: Which max response, negative = inhibition does the source give for COc1ccc(CC(=O)NCc2cccs2)cc1 here?
A: The max response, negative = inhibition was inconclusive: -31.8%.

Q: COc1ccc(C(=O)NC(=S)N2CCN(c3ccc([N+](=O)[O-])cc3)CC2)cc1 was tested. Which max response, negative = inhibition did it give?
A: The max response, negative = inhibition was inconclusive: -37.9%.

Q: For COc1ccc([N+](=O)[O-])cc1NC(=O)CCN1CCN(c2ccccc2OC)CC1, which max response, negative = inhibition is on record?
A: The max response, negative = inhibition was active: -75.5%.

Q: Clc1ccc(-c2csc(NNC3=NCCCCC3)n2)cc1 was tested. Which max response, negative = inhibition did it give?
A: Its max response, negative = inhibition is active: -78.4%.
